From patent US20180028516A1, “METHODS AND DEVICES FOR THE TREATMENT OF OCULAR DISEASES IN HUMAN SUBJECTS” (CLEARSIDE BIOMEDICAL, INC., priority 2012, published 2018)
At least one compound was matched to its structure with a doubt left.

System: LPS-induced acute posterior uveitis
Test: Aqueous and vitreous humor inflammatory cell counts and protein concentration (Example 13)
Type: in vivo, domestic weanling pigs
Details: Group 6: high dose TA IVT
Experimental: Pigs were euthanized on study day 3 after clinical scoring, OCT, ERG, and wide-field ocular fundus photography was completed. After euthanasia with an overdose of intravenous barbiturate, both eyes were removed, Aqueous humor (All) was aspirated and a 1 mL sample of vitreous humor (VH) was collected from each eye immediately after euthanasia. The globe was then fixed in Davidson's solution for 24 hours, followed by alcohol. Central, saggital sections of each globe, including the optic nerve, were stained with hematoxylin and eosin and examined by light microscopy. Two pathology-trained observers, masked to the study groups, graded degree of inflammatory infiltrate of the ocular anterior and posterior segments. The grading scale for the anterior and posterior ocular segment used was as follows: 0=no evidence of cellular infiltrate; 1=a few cells infiltrated (mild)−focal; 2=a few cells infiltrated (mild)−diffuse; 3=moderate number of cells infiltrated; and 4=high amount of cellular infiltrate.
After aspiration from the eyes, AH and VH were immediately placed on ice, transferred to the laboratory, then frozen at −80° C. until processing. Samples where thawed at room temperature, vortexed, and total cell counts were performed with a hemocytometer. Total protein concentration was measured using the […] (Pierce BCA Protein Assay Kit, Thermo Scientific Pierce, Rockford, Ill.). […]

## CC1(C)O[C@@H]2C[C@H]3[C@@H]4CCC5=CC(=O)C=C[C@]5(C)[C@@]4(F)[C@@H](O)C[C@]3(C)[C@]2(C(=O)CO)O1 [TA, triamcinolone acetonide]
  Mean aqueous humor (AH) protein concentration: 3.0SD 3.5 mg/ml
  Mean vitreous humor (VH) protein concentration: 4.0SD 0.8 inglml
